# Assay results as given in PubChem BioAssay AID504467 (National Center for Advancing Translational Sciences (NCATS), 2011).
# In all, about 330,000 compounds went through this assay and about 7,700 (2.3%) were called active. Inconclusive means that the source gave no clear call. Such entries were picked first, then a sample of the others. Calls follow the shape of the dose curve; as a rule, active = well fitted inhibition curve with a large enough effect; inconclusive = small, poorly fitted or top-dose-only effect, or effect the other way; inactive = flat fitted curve, though single readings scatter. Where the call is inconclusive, the potency comes from a doubtful curve fit.
# Assay: qHTS screen for small molecules that inhibit ELG1-dependent DNA repair in human embryonic kidney (HEK293T) cells expressing luciferase-tagged ELG1; also: nearly all actives have a fitted effect of over 55% in size
# Conditions: HEK293T ELG1-luciferase reporter, luminescence, 16 h, DNA damage induced by 5-fluorouridine; series mostly up to 46.1 µM
# Summary of the method: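 Luminescence from the luciferase reporter, measured 30 min after ONE-Glo reagent at room temperature, was the read-out. Beforehand, 2,000 cells per well were exposed for 16 hr at 37 °C to 5-fluorouridine together with compound or vehicle.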
# Potency is read from the fitted curve at half-maximal effect.
row,Structure (SMILES),Potency
1,CCN(CC)C1CCN(C(=O)c2cc(COc3ccc(-n4cncn4)cc3)on2)C1 (stereo not drawn),inactive
2,CN(CC(=O)Nc1cccc(F)c1)CC(=O)Nc1ccc(Cl)cc1[N+](=O)[O-],inactive
3,O=[N+]([O-])c1ccccc1S(=O)(=O)Oc1ccc(/C=N/n2cnnc2)cc1,inactive
4,C[C@@H]1CC=C[C@H]2[C@H]1C(=O)N(Cc1ccccc1)[C@H]2c1ccc2ccccc2c1,inactive
5,O=C(N[C@H](Cc1cc(=O)[nH]c2ccccc12)C(=O)O)c1ccc(Cl)cc1,inactive
6,O=C(C1=C(O)C(=O)N(Cc2ccco2)C1c1cccnc1)c1cc2ccccc2o1 (stereo not drawn),"inconclusive: 29.1 µM [inhibitor, single point]"
7,O=C(Nc1ccccc1O)c1ccccc1O,"inconclusive: 35.5 µM [inhibitor, single point]"
8,O=C(NCC1CCN(S(=O)(=O)c2ccccc2)CC1)Nc1ccccc1,inactive
9,Fc1cccc(Cl)c1/C=C/c1cnc2ccccc2n1,"inconclusive: 0.92 µM [activator, partial curve]"
10,Cc1nn(Cc2ccc(Cl)c(Cl)c2)c(C)c1NC(=O)c1cc(C2CC2)on1,active: 16.4 µM
11,COc1cccc(C2(O)CCN(C(=O)c3cccs3)CC2)c1,"inconclusive: 4.11 µM [activator, single point]"
12,CC(=O)Nc1ccc(/C=N/OCC(=O)Nc2ccc(C)cc2)cc1,"inconclusive: 20.6 µM [activator, partial curve]"
13,Cc1c(C(=O)NC(C)c2ccccn2)oc2c(Cl)cccc12 (stereo not drawn),inactive
14,O=C(NC1CCCCC1)NC1CC2CCC(C1)N2C(=O)NCc1ccccc1 (stereo not drawn),"inconclusive: 25.9 µM [activator, partial curve, poor fit]"
15,Cc1occc1C(=O)N/N=C/C=C/c1ccc(N(C)C)cc1,"inconclusive: 8.2 µM [activator, partial curve]"
16,CC(=O)Nc1ccc(NC(=O)CSc2ncc(C(=O)Nc3ccc(F)cc3)c(=O)n2C)cc1,"inconclusive: 29.1 µM [activator, single point]"
17,Cc1c(C(=O)NCc2ccccc2)c(-c2ccccc2)nn1-c1ccccc1,"inconclusive: 29.1 µM [inhibitor, single point]"
18,CCOC(=O)C1=C(CC)Nc2ccccc2N/C1=N\S(=O)(=O)c1ccccc1OC,inactive
19,COc1cccc(C(=O)Nc2ccc(NC(C)=O)cc2)c1,"inconclusive: 18.4 µM [activator, partial curve]"
20,COc1cccc(/C=N/NC(=O)C(=O)N2CCCC2)c1O,"inconclusive: 16.4 µM [activator, partial curve, poor fit]"
21,CC1(CCc2ccccc2)NC(=O)N(CC(=O)Nc2ccc3c(c2)OCCO3)C1=O (stereo not drawn),inactive
22,Cc1ccc(NC(=O)C(C)OC(=O)Cc2c[nH]c3ccccc23)cc1S(=O)(=O)N1CCOCC1 (stereo not drawn),active: 18.3 µM
23,COc1ccc(C2CC2C(=O)c2ccccn2)cc1 (stereo not drawn),"inconclusive: 18.3 µM [activator, single point]"
24,CC(Sc1ccccn1)C(=O)NC1CCCC1 (stereo not drawn),inactive

# Part of the list above, with tabs.
row	Structure (SMILES)	Potency
20	COc1cccc(/C=N/NC(=O)C(=O)N2CCCC2)c1O	inconclusive: 16.4 µM [activator, partial curve, poor fit]
21	CC1(CCc2ccccc2)NC(=O)N(CC(=O)Nc2ccc3c(c2)OCCO3)C1=O (stereo not drawn)	inactive
22	Cc1ccc(NC(=O)C(C)OC(=O)Cc2c[nH]c3ccccc23)cc1S(=O)(=O)N1CCOCC1 (stereo not drawn)	active: 18.3 µM

# Later entries:

row,Structure (SMILES),Potency
1,Cc1oc(C)c2c(=O)ccc3c(c12)OC(N)=C(C#N)C3c1ccccc1Cl (stereo not drawn),"inconclusive: 23.1 µM [inhibitor, single point]"
2,C/C(=N\Nc1ccc(C(=O)O)cc1)c1ccc(-n2ccnc2)cc1,"inconclusive: 9.2 µM [activator, partial curve]"
3,CC1=C(C(=O)OCc2ccccc2)C(c2ccccc2Cl)NC(=O)N1CCCC(=O)O (stereo not drawn),"inconclusive: 29.1 µM [activator, single point]"
4,COc1ccc(Cn2cc(C(=O)O)c(=O)c3ccccc32)cc1,inactive
5,CCOc1cccc(/C=C/c2ccc3ccccc3n2)c1OC(C)=O,"inconclusive: 0.411 µM [activator, full curve]"
6,CC(C)NC(=O)c1cc2cc(Br)ccc2oc1=O,"inconclusive: 18.4 µM [activator, single point]"
7,COCCN(CCOc1cc(C)cc(C)c1)Cc1ccc(Cl)cc1,inactive
8,CCCNC(=S)Nc1cc2oc3ccccc3c2cc1OC,inactive
9,COc1ccc(Cc2nnc(SCC(=O)c3ccc(OC)cc3)o2)cc1,"inconclusive: 29.1 µM [inhibitor, single point]"
10,CC(=O)c1nnn(-c2ccc(Cl)cc2C#N)c1C,"inconclusive: 0.206 µM [activator, single point]"
11,O=C(COC(=O)c1cccnc1Cl)Nc1ccc2c(c1)OCCO2,inactive
12,Cc1ccc(S(=O)(=O)NCCC(=O)Nc2nccs2)cc1,inactive
13,Cc1ccc(NC(=O)CCCC2CCCCC2)c(O)c1,"inconclusive: 20.6 µM [activator, partial curve]"
14,COc1ccc(N2CCN(C(=O)CCNS(=O)(=O)c3cccs3)CC2)cc1,inactive
15,Cc1c(O)ccc2cc(S(=O)(=O)c3ccccc3)c(=O)oc12,"inconclusive: 13 µM [inhibitor, partial curve, poor fit]"
16,Cc1ccccc1OCC(=O)OCC(=O)c1ccc(-c2ccccc2)cc1,"inconclusive: 29.1 µM [activator, single point]"
17,O=C(CN1C(=O)/C(=C\c2ccc(F)cc2)Oc2ccccc21)N1CCN(c2ccccn2)CC1,inactive
18,COC(=O)c1cc(S(=O)(=O)N2CCCC2)c(Cl)cc1Cl,"inconclusive: 0.0046 µM [activator, full curve, poor fit]"
19,CN(C)C(=O)[C@@H]1C[C@H]1[C@@H](NC(=O)OCc1ccccc1)c1ccccc1,"inconclusive: 29.1 µM [activator, single point]"
20,CCOC(=O)c1cc(=O)c2c([N+](=O)[O-])ccc(OC)c2o1,inactive
21,CC1C=CCC2C(=O)N(c3cccc(C(=O)Nc4ccc(Br)cc4)c3)C(=O)C12 (stereo not drawn),inactive
22,CCCCCCSc1cccc(-c2nc3ccc(Cl)cn3c2NCc2ccccc2)c1,inactive
23,CC(=O)Nc1ccc2oc(-c3ccccc3)nc2c1,"inconclusive: 5.17 µM [activator, partial curve]"
24,COc1ccc(C(=O)NCCS(=O)(=O)NCCc2ccccc2)cc1,"inconclusive: 9.2 µM [activator, partial curve]"
